This experiment concerns the target T1, DNTTIP1 (mouse (endogenous in mESCs)) (UniProt Q99LB0).
T1 sequence: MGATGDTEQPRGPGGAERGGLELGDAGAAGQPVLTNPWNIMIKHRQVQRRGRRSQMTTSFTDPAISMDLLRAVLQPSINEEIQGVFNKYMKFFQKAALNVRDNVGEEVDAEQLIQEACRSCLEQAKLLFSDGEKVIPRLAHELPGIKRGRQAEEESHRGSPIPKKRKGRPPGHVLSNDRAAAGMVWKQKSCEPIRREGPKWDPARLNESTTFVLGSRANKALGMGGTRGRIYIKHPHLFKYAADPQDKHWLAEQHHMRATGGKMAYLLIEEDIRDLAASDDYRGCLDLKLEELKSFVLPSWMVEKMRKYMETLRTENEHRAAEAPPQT
Briefly: co-IP; IP with ELMSAN1 or DNTTIP1 antibody (IgG as control) on Dynabeads Protein G from nuclear extracts of WT, Dnttip1 KO1 or Elmsan1 KO1 mESCs; Lysis Buffer 2 (20 mM HEPES pH 7.9, 420 mM NaCl), 4°C overnight; WB for MiDAC components.

Amino acid sequences for entries named in this document (tags omitted).
UniProt P70288: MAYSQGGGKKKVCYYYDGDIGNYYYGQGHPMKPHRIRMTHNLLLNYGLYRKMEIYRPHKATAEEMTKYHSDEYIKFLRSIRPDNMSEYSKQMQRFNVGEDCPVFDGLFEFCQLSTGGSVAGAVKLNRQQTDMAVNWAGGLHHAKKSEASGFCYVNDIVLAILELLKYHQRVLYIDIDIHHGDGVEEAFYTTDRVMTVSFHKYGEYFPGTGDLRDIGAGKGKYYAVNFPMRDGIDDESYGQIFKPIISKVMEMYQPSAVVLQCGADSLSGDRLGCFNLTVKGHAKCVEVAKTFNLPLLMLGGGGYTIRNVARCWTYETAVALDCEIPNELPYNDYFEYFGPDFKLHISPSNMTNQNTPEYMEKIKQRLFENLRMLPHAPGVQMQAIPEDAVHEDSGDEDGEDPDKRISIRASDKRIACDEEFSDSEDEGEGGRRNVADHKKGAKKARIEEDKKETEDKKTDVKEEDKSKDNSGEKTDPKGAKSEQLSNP
UniProt O09106: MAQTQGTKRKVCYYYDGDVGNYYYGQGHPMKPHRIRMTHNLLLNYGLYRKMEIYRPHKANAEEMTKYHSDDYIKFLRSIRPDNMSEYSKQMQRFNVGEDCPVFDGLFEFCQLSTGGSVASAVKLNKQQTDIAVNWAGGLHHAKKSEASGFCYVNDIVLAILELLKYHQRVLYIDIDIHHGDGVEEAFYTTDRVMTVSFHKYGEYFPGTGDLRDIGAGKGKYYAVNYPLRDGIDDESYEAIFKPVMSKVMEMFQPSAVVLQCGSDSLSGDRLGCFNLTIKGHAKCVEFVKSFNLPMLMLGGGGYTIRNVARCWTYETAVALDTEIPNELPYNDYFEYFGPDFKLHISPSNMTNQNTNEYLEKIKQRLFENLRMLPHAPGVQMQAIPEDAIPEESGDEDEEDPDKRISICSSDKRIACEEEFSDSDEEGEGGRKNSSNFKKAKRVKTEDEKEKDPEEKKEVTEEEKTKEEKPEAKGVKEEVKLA

Results are given in words; binding and its absence hold for the method and conditions named. Binding seen in cells or lysates may run through a third protein. Some binding calls cover weakened binding; strength is not graded here.

Take “HDAC2 (from UniProt P70288 1-488) (enzyme)”: the binding entry is “no binding”.
The result for “HDAC1 (from UniProt O09106 1-482) (enzyme)” reads “binds”.

The values are drawn from paper PMC7192582.
